Test results as given in US20060241040A1 (published 2006).
No constants are given. Whether binding was seen depends on the method and setting. For some of these results: In cells and extracts the contact can be indirect. Some binding calls cover weakened binding; strength is not graded here. Where a sequence is shown, tags or fusion partners need not be part of it.

By UniProt entry, the sequences of proteins in these tests, tags left out. Where a name states a change or a piece, a line headed by the entry shows the natural chain unless it says otherwise. Chains listed by the source or under a name are the forms on record and can include a tag or linker. Residues count along the entry.
UniProt O00206: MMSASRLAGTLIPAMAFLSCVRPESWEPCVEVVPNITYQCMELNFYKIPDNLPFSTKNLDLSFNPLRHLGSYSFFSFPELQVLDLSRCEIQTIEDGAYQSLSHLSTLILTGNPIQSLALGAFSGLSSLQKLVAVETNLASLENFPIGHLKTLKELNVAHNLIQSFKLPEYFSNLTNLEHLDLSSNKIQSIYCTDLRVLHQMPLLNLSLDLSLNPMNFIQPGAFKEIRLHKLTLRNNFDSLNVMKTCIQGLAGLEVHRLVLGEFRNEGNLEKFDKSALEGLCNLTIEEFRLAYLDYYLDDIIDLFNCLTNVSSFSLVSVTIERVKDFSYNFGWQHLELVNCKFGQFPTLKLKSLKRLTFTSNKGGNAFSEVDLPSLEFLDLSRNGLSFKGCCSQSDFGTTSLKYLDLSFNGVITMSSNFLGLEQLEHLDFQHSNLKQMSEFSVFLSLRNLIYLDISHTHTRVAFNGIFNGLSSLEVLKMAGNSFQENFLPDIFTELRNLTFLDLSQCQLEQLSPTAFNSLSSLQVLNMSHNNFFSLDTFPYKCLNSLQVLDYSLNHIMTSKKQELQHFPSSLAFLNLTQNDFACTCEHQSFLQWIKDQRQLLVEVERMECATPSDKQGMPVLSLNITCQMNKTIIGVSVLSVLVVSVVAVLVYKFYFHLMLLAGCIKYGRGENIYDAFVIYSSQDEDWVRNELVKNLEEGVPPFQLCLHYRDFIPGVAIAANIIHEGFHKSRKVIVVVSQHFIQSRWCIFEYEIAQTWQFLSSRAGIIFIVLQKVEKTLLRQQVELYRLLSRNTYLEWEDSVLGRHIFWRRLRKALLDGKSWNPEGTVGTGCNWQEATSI
YFP tagged full length TLR4 expressed on HEK293 cells: residues 24-839 of O00206
FLAG tagged extracellular TLR4 chimeric protein: residues 24-631 of O00206

Tests used:
[1] = target: FLAG-tagged TLR4 stably expressed in cells (UniProt O00206); test: biotin-LPS/streptavidin capture of TLR4^FLAG and MD-2^FLAG together from cell lysates; ratio said to be 1:1 (FIG. 3B, lane 1)
[2] = target: FLAG-tagged TLR4 stably expressed in cells (UniProt O00206); test: co-immunoprecipitation from lysates of cells expressing TLR4^FLAG and MD-2^FLAG with anti-TLR4 mAb HTA125, Western blot anti-FLAG-HRP. This blot is the one described by the legend of FIG. 3B
[3] = target: YFP tagged full length TLR4 expressed on HEK293 cells (UniProt O00206); test: co-immunoprecipitation from surface-biotinylated HEK293 cells expressing TLR4^YFP and MD-2 with polyclonal anti-GFP, non-reducing SDS-PAGE, Western blot anti-biotin-HRP; cells untreated or treated with LPS
[4] = target: YFP tagged full length TLR4 expressed on HEK293 cells (UniProt O00206); test: biotin-LPS (1 µg/ml) pull-down with streptavidin beads from HEK/TLR4^YFP cells given supernatant of MD-2 transduced HEK293 cells as source of soluble MD-2; TLR4^YFP is captured through LPS-loaded MD-2; Western blot anti-GFP
[5] = target: YFP tagged full length TLR4 expressed on HEK293 cells (UniProt O00206); test: conclusion of Example 2 (co-immunoprecipitation, FIG. 2B)
[6] = target: FLAG tagged extracellular TLR4 chimeric protein (UniProt O00206); test: biotin-LPS capture in the soluble phase, anti-FLAG blot (not shown)
[7] = target: YFP tagged full length TLR4 expressed on HEK293 cells (UniProt O00206); test: co-immunoprecipitation with TLR4^YFP from surface-biotinylated cells, anti-biotin blot (FIG. 2B)
[8] = target: TLR4:Fc fusion protein (entire extracellular domain of hTLR4, amino acids 1-632, fused to the Fc portion of mouse IgG2a) (human; mouse) [IgG part: P01863]; test: ELISA-like assay: TLR4:Fc (20 µg/ml) captured on protein A coated plates, 6xHis tagged MD-2 titrated 0.1 to 50 nM without or with LPS, detection with Ni-HRP, absorbance at 450 nm
[9] = target: TLR4:Fc fusion protein (entire extracellular domain of hTLR4, amino acids 1-632, fused to the Fc portion of mouse IgG2a) (human; mouse) [IgG part: P01863]; test: ELISA-like assay: titrated TLR4:Fc on protein A plate, MD-2 at 12 nM with or without LPS, Ni-HRP detection (FIG. 4B)
[10] = target: TLR4:Fc fusion protein (entire extracellular domain of hTLR4, amino acids 1-632, fused to the Fc portion of mouse IgG2a) (human; mouse) [IgG part: P01863]; test: ELISA-like assay: TLR4:Fc captured on protein A coated plates at 0 to 35 nM, 6xHis tagged MD-2 added at 12 nM without or with LPS (0.1, 1, 10), detection with Ni-HRP, absorbance at 450 nm

Measured: binding

B1: N-terminally FLAG tagged and C-terminally 6×His tagged human MD-2, secreted by or expressed in transduced HEK293 cells (ligand, not shown: small tags and cut ends)
chain: QKQYWVCNSSDASISYTYCDKMQYPISINVNPCIELKGSKGLLHIFYIPRRDLKQLYFNLYITVNTMNLPKRKEVICRGSDDDYSFCRALKGETVNTTISFSFKGIKFSKGKYKCVVEAISGSPEEMLFCLEFVILHQPNSNHHHHHH
not listed: [8] | [9] | [10]
binds: all other assays above

B2: C-terminally 6×His tagged human MD-2, baculovirus-derived (Sf9 insect cells), purified (ligand)
chain: B1 chain
notes: Purified from supernatants (secreted); also called MD-2^6xHis; MD-2^6×His
binds: [8] | [9] | [10]
